Values of other authors as cited in US20080207673A1, “Method for Treating Cancer, Coronary, Inflammatory and Macular Disease, Combining the Modulation of Zinc-and/or Copper Dependent Proteins” (priority 2005, published 2008).
For at least one compound, name, drawing or mass did not settle the structure.

Tested on: TNF-alpha
Conditions: oral administration; cited from earlier work

In the case of `CCN(CC)C(=S)SSC(=S)N(CC)CC` [DSF, Disulfiram], the “lowering of TNF-alpha serum level” value is listed as 4 fold.
